# Laboratory results: the supplement of paper PMC3334620
# Whole data set: some 33,000 sequences, median “E-score (-0.5 to 0.5)” near -0.0034, cut for the highest 2% near 0.25. This is one part of the list.
# Target: T1, Yap3 (UniProt P38749)
# T1 sequence: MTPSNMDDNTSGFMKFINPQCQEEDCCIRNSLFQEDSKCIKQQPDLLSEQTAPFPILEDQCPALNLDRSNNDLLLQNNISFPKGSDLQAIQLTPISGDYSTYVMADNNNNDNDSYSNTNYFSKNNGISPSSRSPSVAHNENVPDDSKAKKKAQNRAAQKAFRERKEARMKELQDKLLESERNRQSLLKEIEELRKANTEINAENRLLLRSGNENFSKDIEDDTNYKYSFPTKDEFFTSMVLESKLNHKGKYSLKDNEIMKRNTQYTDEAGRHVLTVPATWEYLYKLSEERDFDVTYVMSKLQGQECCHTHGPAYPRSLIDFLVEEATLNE
# Assay: PBM E-score (8-mer binding enrichment) (E-score (-0.5 to 0.5)); higher = stronger / more preferred TF binding
# Conditions: protein concentration: 100 nM; construct: GST-full length
# How it was run: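 The E-score, a modified Wilcoxon-Mann-Whitney statistic, was computed by the Universal PBM Analysis Suite for every ungapped eight-base word pooled with its reverse complement. Scans behind it were normalised with masliner after bound GST-tagged yeast transcription factors were detected with fluorescent anti-GST. The proteins, at about 100-200 nM, had been applied to universal all-10-mer Agilent arrays made double-stranded by primer extension.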
row,Sequence,PBM E-score
1,GCTGGCCC,-0.248
2,AGATATGC,0.041
3,AAGCGTCC,-0.189
4,CAGCAGAG,-0.151
5,ATGACGGC,-0.0426
6,CGAGGAAA,0.0324
7,CTATTTTC,0.114
8,CTGCACCC,-0.177
9,GCGCTGAC,0.0532
10,CTAGGTAC,-0.0662
11,GGATGCCC,-0.206
12,ACCGAGCT,-0.13
13,CATATACA,0.248
14,ATATTCCA,0.241
15,CGCAGACA,0.0128
16,CATAGTGA,-0.13
17,ATGGTCAA,0.163
18,CATCCCAG,-0.108
19,GGCCTTCA,0.0712
20,AAATGGAG,0.186
21,CGGAATCA,0.198
22,CACGTATG,-0.0108
23,GCTTGTCA,0.0598
24,CTCCCACA,-0.0565
25,CGTACCGC,-0.0177

row,Sequence,PBM E-score
1,AACCGACA,0.017
2,CAATTTGG,0.0283
3,ACACGGGA,-0.0598
4,AACACTTC,0.15
5,CCCCGCGC,-0.206
6,GCCCGGGA,-0.24
7,ACCACCCT,-0.266
8,ATCGGCAC,0.0497
9,CTATGGGC,-0.0642
10,GCCCCAGA,-0.321
11,CCACACCC,0.00279
12,CATGATCG,0.0217
13,CGCATATC,0.246
14,CAGGCTAC,-0.097
15,CTGGTCAC,-0.0493
16,TACTCCCA,0.0414
17,AACAAGGT,-0.0132
18,ATAAATTC,0.153
19,CCGCACTC,0.0995
20,AAGTCTAC,-0.121
21,AACCTTCA,0.0166
22,AAGCATAT,0.132
23,ACCGGACA,-0.164
24,CGGCTAGA,-0.0418
25,ACGTGGAC,-0.133

row,Sequence,PBM E-score
1,CAAAGCCC,-0.169
2,AGGAGTTG,0.0239
3,CGTGTCGA,-0.0279
4,GCAATAAA,0.227
5,AATATACG,0.116
6,AGCCTACC,-0.192
7,CAGGCAAC,0.0026
8,CATAACTC,-0.0451
9,ATAATGTG,0.12
10,ACGACAGC,-0.0101
11,CGATTAAG,0.125
12,CACCCTAG,0.0631
13,AATAGATT,0.0562
14,ATCTGACG,-0.0636
15,CGTATAAG,0.0649
16,ACCCTCAG,-0.135
17,GCGAGCGA,0.0756
18,AAGATACT,-0.0357
19,AATGTGGC,-0.00978
20,ATCGCATG,0.0992
21,TCTTACAA,0.0509
22,ATTAGGAC,-0.0107
23,CAACGAAA,0.166
24,ACGGGAGG,-0.169
25,GTTAATCA,0.256

row,Sequence,PBM E-score
1,GTGTTCCA,-0.0346
2,CCAAGTTC,-0.126
3,CGGCCCTA,-0.0174
4,GCACCAGC,-0.211
5,GCCGCTCA,-0.141
6,GTAAACTA,0.184
7,ATGGAACG,0.0119
8,AGTTAATC,0.0976
9,AGTCAACG,-0.0169
10,GAAAACAC,0.189
11,GCACCAAA,-0.0158
12,ATCCAGAC,-0.109
13,AGAGGTGA,0.12
14,CTTAGTAC,0.0262
15,AGCCGTGA,-0.018
16,ACGCCCTA,-0.166
17,ACAGTTAA,0.19
18,AGTTGCGG,0.146
19,ACAAGGTC,-0.0989
20,ATCCATCC,0.118
21,GACGCAAC,-0.0173
22,AAGTCCAT,-0.073
23,GTAAGCCA,0.0132
24,AAGCGGAA,0.087
25,CATCATGC,0.117

row,Sequence,PBM E-score
1,ATTTCTTG,0.171
2,CCCATCCG,-0.229
3,CCCATATA,0.0424
4,GGGACACA,-0.0101
5,AGTGAAAC,0.0554
6,CATTATGC,0.0641
7,GAGTTACA,0.0801
8,ATATTCTC,0.295
9,CATATGAC,0.102
10,GCACTTCA,0.0301
11,CTCTCGGA,0.00281
12,CCTCGAAC,-0.0642
13,GAGCCACC,-0.241
14,ATGCAAAA,0.242
15,TCTGAAAA,0.113
16,CATATAAA,0.183
17,CGGATCTC,-0.131
18,CATCACCG,-0.0483
19,ATAGTGTC,0.051
20,CGGTGAGC,-0.127
21,CCTGTCTA,-0.0391
22,CGCAAGTA,0.125
23,AACCGAAC,-0.0848
24,CCGCTCGA,-0.0717
25,CCGACAAA,0.1

# Exported tab-delimited: entries from further up.
row	Sequence	PBM E-score
13	GAGCCACC	-0.241
14	ATGCAAAA	0.242
15	TCTGAAAA	0.113

# More records follow:

row,Sequence,PBM E-score
1,CCGAGAAG,0.0262
2,CCTGGCGC,-0.149
3,AGTTCACG,-0.0944
4,CAACTCCC,0.067
5,AAGTTCAC,0.00912
6,CGCTTCGC,-0.0694
7,CAACCCAC,-0.0237
8,AACCCAAT,-0.00184
9,CCCTGTAC,-0.311
10,GCGGAGAA,0.0215
11,TGTTATAA,0.252
12,AATGGACA,0.118
13,CCTCGTGA,-0.131
14,ATTCACGG,0.00937
15,GTTAAGAA,-0.0121
16,AGCTAGTG,-0.1
17,CGGCATAG,-0.0989
18,CCCATCAG,-0.388
19,TATTTTAA,0.171
20,ACGCAAAC,0.06
21,ACCCCAGC,-0.144
22,ATTACGAA,0.329
23,CCCGACAG,-0.0497
24,ATATGAAT,0.238
25,AGGCCGGC,-0.226

# Two entries picked at random from the list so far:
row,Sequence,PBM E-score
12,AATGGACA,0.118
3,AGTTCACG,-0.0944

# (next part)

row,Sequence,PBM E-score
1,CCCGTTAG,-0.25
2,AGGTGCTA,-0.081
3,GATGGTGC,-0.294
4,ATGAACTA,0.21
5,ACGTCTTC,-0.0899
6,ACCTATGC,-0.0927
7,CGCGTTAG,-0.0975
8,ATACGTGA,0.176
9,ATGTCTAG,0.033
10,CCTCGGTA,-0.223
11,CCCAGCCA,-0.00872
12,AGCTGCGC,-0.0982
13,AGGGAAGG,-0.217
14,TAAATCTA,0.0939
15,CCATTCTC,-0.0378
16,ACTTGCGC,0.036
17,CGGTGTAG,0.00612
18,ATAGTACA,0.122
19,AACGCAAT,0.134
20,ACCACTTC,-0.043
21,AAGCATCA,-0.00288
22,CGTATGGC,0.0934
